{
  "source": "PubChem BioAssay AID180",
  "about": "(DTP/NCI, 2004)",
  "system": "BDF1 mice, Adenocarcinoma 755 s.c., tumor weight T/C",
  "assay": "NCI In Vivo Anticancer Drug Screen. Data for tumor model Adenocarcinoma 755 (subcutaneous) in B6D2F1 (BDF1) mice",
  "settings": "T/C endpoint: mean tumor weight, higher T/C = larger tumour; for T/C: evaluated on day 12",
  "how_it_was_run": "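Tumor-bearing mice receive test compound while controls get vehicle alone. Antitumor effect is scored from survival or tumor dimensions as a T/C quotient.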",
  "key": {"[1]": {"settings": "dose: 500.0 mg/kg/injection, schedule: Q01DX011 (ip), vehicle: methylcellulose (MC)"}, "[2]": {"settings": "dose: 50.0 mg/kg/injection, schedule: Q01DX011 (ip), vehicle: carboxymethylcellulose (CMC)"}, "[3]": {"settings": "dose: 125.0 mg/kg/injection, schedule: Q01DX011 (ip), vehicle: methylcellulose (MC)"}, "[4]": {"settings": "dose: 250.0 mg/kg/injection, schedule: Q01DX011 (ip), vehicle: methylcellulose (MC)"}, "[5]": {"settings": "dose: 20.0 mg/kg/injection, schedule: Q01DX011 (ip), vehicle: carboxymethylcellulose (CMC)"}},
  "note": "The list does not hold the whole screen: it gathers tests that were run many times, whatever their T/C, doses with no T/C, and many T/C values between a quarter and a half above the control. Other doses and runs of a compound stand elsewhere. T/C gives the treated animals as a percentage of the vehicle group. Schedule codes are those of the source, taken here to give the interval after Q, in days (D) or hours (H), and the number of doses after X. Some T/C values are followed by the survivors on the day toxicity was checked, most often the fifth; without a count, all were alive then. Some entries were tested several times; their values stand side by side, smallest first. Some schedule codes hold Z or #, which are not explained here. Some doses have a count of surviving animals in place of a T/C: the source holds a T/C of zero for them, seemingly a mark for toxic or unscored doses. Counts of survivors are from the toxicity check (mostly the fifth day) where no day follows; animals may have died later.",
  "data": [
    {"smiles": "CN(C)c1ccc2nc3ccc(=[N+](C)C)cc-3sc2c1", "values": [
      {"measurement": "survivor count", "setting": "dose: 23.05 mg/kg/injection, schedule: Q01DX011 (ip), vehicle: carboxymethylcellulose (CMC)", "result": "6 of 10"},
      {"measurement": "survivor count", "setting": "dose: 41.9 mg/kg/injection, schedule: Q01DX011 (ip), vehicle: carboxymethylcellulose (CMC)", "result": "5 of 10"},
      {"measurement": "T/C", "setting": "dose: 42.0 mg/kg/injection, schedule: Q01DX011 (ip), vehicle: carboxymethylcellulose (CMC)", "result": "133 % of control [9 of 10 alive]"}
    ]},
    {"smiles": "CCCCCCC(=O)NC1=C(N2CC2)C(=O)C(NC(=O)CCCCCC)=C(N2CC2)C1=O", "values": [
      {"measurement": "survivor count", "setting": "dose: 22.5 mg/kg/injection, schedule: Q01DX011 (ip), vehicle: carboxymethylcellulose (CMC)", "result": "6 of 10"}
    ]},
    {"smiles": "CC(=O)OCC(=O)[C@@]1(O)CC[C@H]2[C@@H]3C[C@H](C)C4=CC(=O)C=C[C@]4(C)[C@H]3[C@@H](O)C[C@@]21C", "values": [
      {"measurement": "survivor count", "setting": "dose: 80.0 mg/kg/injection, schedule: Q01DX011 (sc), vehicle: steroid suspending solution", "result": "6 of 10"},
      {"measurement": "survivor count", "setting": "dose: 160.0 mg/kg/injection, schedule: Q01DX011 (sc), vehicle: steroid suspending solution", "result": "4 of 10"},
      {"measurement": "survivor count", "setting": "dose: 320.0 mg/kg/injection, schedule: Q01DX011 (sc), vehicle: steroid suspending solution", "result": "4 of 12"}
    ]},
    {"smiles": "c1cc2n(n1)CCN2", "values": [
      {"measurement": "survivor count", "setting": "dose: 230.0 mg/kg/injection, schedule: Q01DX011 (ip), vehicle: saline", "result": "2 of 10"}
    ]},
    {"smiles": "CC(=O)N(C)C", "values": [
      {"measurement": "T/C", "setting": "dose: 250.0 mg/kg/injection, schedule: Q01DX006 (iv), vehicle: saline", "result": "132 % of control"},
      {"measurement": "T/C", "setting": "dose: 250.0 mg/kg/injection, schedule: Q01DX011 (im), vehicle: saline", "result": "140 % of control"},
      {"measurement": "T/C", "setting": "dose: 250.0 mg/kg/injection, schedule: Q01DX011 (sc), vehicle: saline", "result": "147 % of control"},
      {"measurement": "T/C", "setting": "dose: 250.0 mg/kg/injection, schedule: Q#A X022 (ip), vehicle: saline", "result": "128 % of control [8 of 10 alive]"},
      {"measurement": "survivor count", "setting": "dose: 1500.0 mg/kg/injection, schedule: Q01DX011 (ip), vehicle: other", "result": "5 of 10"},
      {"measurement": "survivor count", "setting": "dose: 2000.0 mg/kg/injection, schedule: Q01DX011 (ip), vehicle: other", "result": "3 of 10"},
      {"measurement": "survivor count", "setting": "dose: 2000.0 mg/kg/injection, schedule: Q01DX011 (sc), vehicle: saline", "result": "6 of 10"}
    ]},
    {"smiles": "O=S(=O)(O)c1cccnc1", "values": [
      {"measurement": "T/C", "setting": "dose: 74.73 mg/kg/injection, schedule: Q01DX011 (ip), vehicle: carboxymethylcellulose (CMC)", "result": "142 [9 of 10 alive] and 144 % of control"},
      {"measurement": "survivor count", "setting": "dose: 298.9 mg/kg/injection, schedule: Q01DX011 (ip), vehicle: carboxymethylcellulose (CMC)", "result": "6 of 10"},
      {"measurement": "survivor count", "setting": "[1]", "result": "6 of 10"}
    ]},
    {"smiles": "CCCCNC(=O)c1n[se]nc1N", "values": [
      {"measurement": "survivor count", "setting": "dose: 8.0 mg/kg/injection, schedule: Q01DX011 (ip), vehicle: carboxymethylcellulose (CMC)", "result": "2 of 10"}
    ]},
    {"smiles": "CCOC1=C(N2CC2)C(=O)C(OCC)=C(N2CC2)C1=O", "values": [
      {"measurement": "survivor count", "setting": "dose: 2.5 mg/kg/injection, schedule: Q01DX011 (ip), vehicle: methylcellulose (MC)", "result": "5 of 10"},
      {"measurement": "T/C", "setting": "dose: 20.0 micrograms/kg/injection, schedule: Q01DX011 (ip), vehicle: carboxymethylcellulose (CMC)", "result": "138 % of control"}
    ]},
    {"smiles": "COc1ccc(C[n+]2cc([O-])on2)cc1", "values": [
      {"measurement": "T/C", "setting": "dose: 25.0 mg/kg/injection, schedule: Q01DX011 (ip), vehicle: carboxymethylcellulose (CMC)", "result": "18, 30, 47 [9 of 10 alive], 72 [9 of 10 alive], 108 % of control"},
      {"measurement": "T/C", "setting": "[2]", "result": "18 and 83 % of control"},
      {"measurement": "survivor count", "setting": "[2]", "result": "2 of 10 and 4 of 10"},
      {"measurement": "survivor count", "setting": "dose: 100.0 mg/kg/injection, schedule: Q01DX011 (ip), vehicle: carboxymethylcellulose (CMC)", "result": "2 of 10"}
    ]},
    {"smiles": "CCCCn1cnc2c(SCc3ccccc3Cl)nc(N)nc21", "values": [
      {"measurement": "survivor count", "setting": "[1]", "result": "5 of 10"}
    ]},
    {"smiles": "CCc1c(Cl)nc(N)nc1Nc1ccccc1Br", "values": [
      {"measurement": "T/C", "setting": "[3]", "result": "125 % of control [7 of 10 alive]"}
    ]},
    {"smiles": "CC1CC(C)(O)CC(C(O)CC2CC(=O)NC(=O)C2)C1=O", "note": "(stereo unspecified)", "values": [
      {"measurement": "T/C", "setting": "dose: 0.05 mg/kg/injection, schedule: Q01DX011 (ip), vehicle: alkali diluted with saline", "result": "142 % of control"},
      {"measurement": "survivor count", "setting": "dose: 0.4 mg/kg/injection, schedule: Q01DX011 (ip), vehicle: alkali diluted with saline", "result": "2 of 10"}
    ]},
    {"smiles": "CC(=O)NNC(=O)c1ccccn1", "values": [
      {"measurement": "survivor count", "setting": "dose: 150.0 mg/kg/injection, schedule: Q01DX011 (ip), vehicle: water", "result": "6 of 12"}
    ]},
    {"smiles": "CS(=O)(=O)OCC(O)C(O)COS(C)(=O)=O", "note": "(stereo unspecified)", "values": [
      {"measurement": "survivor count", "setting": "dose: 1000.0 mg/kg/injection, schedule: Q01DX011 (ip), vehicle: carboxymethylcellulose (CMC)", "result": "6 of 10"}
    ]},
    {"smiles": "CCCCn1cnc2c(=S)nc(N)[nH]c21", "values": [
      {"measurement": "survivor count", "setting": "dose: 5.0 mg/kg/injection, schedule: Q01DX011 (ip), vehicle: olive oil, sesame oil, peanut oil", "result": "4 of 10"}
    ]},
    {"smiles": "Cn1c(=O)c2c(nc(N/N=C/c3ccccc3Br)n2C)n(C)c1=O", "values": [
      {"measurement": "survivor count", "setting": "dose: 60.0 mg/kg/injection, schedule: Q01DX011 (ip), vehicle: carboxymethylcellulose (CMC)", "result": "5 of 10"}
    ]},
    {"smiles": "CCc1c(Cl)nc(N)nc1Nc1ccc(Cl)c(Cl)c1", "values": [
      {"measurement": "T/C", "setting": "dose: 62.0 mg/kg/injection, schedule: Q01DX011 (ip), vehicle: methylcellulose (MC)", "result": "137 % of control"},
      {"measurement": "survivor count", "setting": "[3]", "result": "6 of 10"},
      {"measurement": "T/C", "setting": "[4]", "result": "141 % of control"}
    ]},
    {"smiles": "COC12C(COC(N)=O)C3=C(C(=O)C(C)=C(N)C3=O)N1CC1C2N1C", "note": "(stereo unspecified)", "values": [
      {"measurement": "survivor count", "setting": "[5]", "result": "1 of 10"}
    ]},
    {"smiles": "COc1cc(C(=O)O)nc(SC)n1", "values": [
      {"measurement": "survivor count", "setting": "[4]", "result": "1 of 10"}
    ]},
    {"smiles": "CC(=O)OCCOc1ccc(C(C)(C)C)cc1", "values": [
      {"measurement": "T/C", "setting": "dose: 57.0 mg/kg/injection, schedule: Q01DX011 (ip), vehicle: carboxymethylcellulose (CMC)", "result": "140 % of control"},
      {"measurement": "survivor count", "setting": "dose: 450.0 mg/kg/injection, schedule: Q01DX011 (ip), vehicle: methylcellulose (MC)", "result": "6 of 10"}
    ]},
    {"smiles": "C1CN1c1nc(N2CC2)nc(N2CC2)n1", "values": [
      {"measurement": "survivor count", "setting": "dose: 0.2 mg/kg/injection, schedule: Q01DX011 (ip), vehicle: carboxymethylcellulose (CMC)", "result": "6 of 10"},
      {"measurement": "survivor count", "setting": "dose: 0.4 mg/kg/injection, schedule: Q02DX011 (ip), vehicle: carboxymethylcellulose (CMC)", "result": "5 of 10"},
      {"measurement": "survivor count", "setting": "dose: 0.75 mg/kg/injection, schedule: Q01DX011 (ip), vehicle: saline", "result": "6 of 10"},
      {"measurement": "survivor count", "setting": "dose: 0.8 mg/kg/injection, schedule: Q02DX011 (ip), vehicle: carboxymethylcellulose (CMC)", "result": "0 of 10"},
      {"measurement": "survivor count", "setting": "dose: 1.0 mg/kg/injection, schedule: Q01DX011 (ip), vehicle: saline", "result": "0 of 10"},
      {"measurement": "T/C", "setting": "dose: 75.0 micrograms/kg/injection, schedule: Q01DX011 (ip), vehicle: saline", "result": "126 % of control"},
      {"measurement": "survivor count", "setting": "dose: 625.0 micrograms/kg/injection, schedule: Q01DX011 (ip), vehicle: methylcellulose (MC)", "result": "5 of 10"}
    ]},
    {"smiles": "c1ccn(-c2nc(-n3cccc3)nc(-n3cccc3)n2)c1", "values": [
      {"measurement": "survivor count", "setting": "dose: 500.0 mg/kg/injection, schedule: Q01DX011 (ip), vehicle: carboxymethylcellulose (CMC)", "result": "1 of 10"}
    ]},
    {"smiles": "C[N+](C)(C)C(C(=O)c1ccccc1)c1ccccc1", "note": "(stereo unspecified)", "values": [
      {"measurement": "T/C", "setting": "dose: 5.0 mg/kg/injection, schedule: Q01DX011 (ip), vehicle: carboxymethylcellulose (CMC)", "result": "127 % of control [9 of 10 alive]"},
      {"measurement": "survivor count", "setting": "[5]", "result": "0 of 10"}
    ]},
    {"smiles": "O=C(CC[n+]1ccccc1)N1CCN(C(=O)CC[n+]2ccccc2)CC1", "values": [
      {"measurement": "survivor count", "setting": "dose: 5.0 mg/kg/injection, schedule: Q01DX011 (ip), vehicle: methylcellulose (MC)", "result": "1 of 10"}
    ]}
  ]
}
